# Primary screen of a compound library

The values are deposited in ChEMBL (CHEMBL3988442, “University of Dundee, Small-Polar-MMV Screening Library” (2021)).

Mtb glucose medium: 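Growth of Mycobacterium tuberculosis over 3 days (7H9 medium with glucose and tyloxapol); the read-out is not stated. Compounds at 50 µM. The record gives no direction; compounds that gave an IC50 in retests scored well above the rest, so higher reads as more growth inhibition. Of about 69,000 compounds tested this way, about 760 (1.1%) reached 50% or more in at least one test.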
Mtb cholesterol medium: 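Phenotypic screen: M. tuberculosis growth, cholesterol and DPPC medium, 4 days; the read-out is not stated. Tested at 50 µM. Direction is inferred from retests: higher values go with more growth inhibition. About 69,000 compounds were tested under these conditions; 0.54% (about 370) showed 50% or more at least once.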

Results are given as percent effect. The controls that fix the scale are not given in the record; negative values are as filed. This is an unselected part of the compounds tested. Two or more numbers in one place are separate tests of the same structure; such repeats can differ widely.

structure	Mtb glucose medium	Mtb cholesterol medium
CN(C)CC1CN(Cc2cccc(C#N)c2)Cc2nccn2C1.O=C(O)C(F)(F)F.O=C(O)C(F)(F)F (stereo not given)	-13.46	-4.774
Cc1cc(N2CCC(Cc3cccnc3)CC2)ncn1	8.253	2.069
Cc1cc2ncn(C(=O)N3CCCC3)c2cc1C	10.3	13.85
CCN1CCC(NC(=O)N(C)Cc2csc3ccccc23)CC1	17.25 & 0.3092	3.947
[H][C@]12CN(C(=O)c3ccc4c(c3)OCO4)CCN1C(=O)N(CCOC)C2	-8.52 & -1.308	0.02157
CN1C(=O)CC2(CCN(Cc3cnn(C)c3)CC2)c2ccccc21	-25.06 & -11.23	-25.59
Cn1ccc2c(-c3ccc(NC4CC4)nn3)ccnc21	20.1	26.21
COCCNS(=O)(=O)c1ccc(CNc2ncccc2C#N)cc1	11.82	-3.447
O=C(O)C(F)(F)F.[H][C@@]12CN(CCO)C[C@@]1([H])N(Cc1cccc(C)c1)C(=O)CO2	6.442	-13.83 & -0.531
Cc1cnc(N2CCc3cc(C(=O)O)c(N(C)C)nc3CC2)nc1.O=C(O)C(F)(F)F	-4.989	-26.92
CCS(=O)(=O)N1C[C@@H](C(=O)NC(C)C)[C@@]2(Cc3ccccc3C(=O)N2)C1	-8.266	4.353 & -0.9964
CC1CN(C(=O)Nc2ccc(Cl)c(C(=O)NC3CC3)c2)CC(C)(C)O1 (stereo not given)	19.83	-2.686
Cn1c2c(c(=O)n1C)CN(C(=O)c1ccsc1)CCC2	-2.516 & 5.744	7.668 & -6.157
Cc1nn(C)cc1CN1CCC(c2ncc(Cl)cc2S(C)(=O)=O)CC1	-28.5	-11.26 & -5.611
O=C(COc1coc(CN2CCOCC2)cc1=O)Nc1ccc(Cl)cc1	9.974	-0.9266
CN(C)c1cnn(CC(=O)N2CCN(c3ccccc3)CC2)c(=O)c1	14.02	19.69
CNS(=O)(=O)Cc1ccccc1CNc1ccc(C#N)cn1	-4.986	-45.11
O=C1N(c2ccc(Br)cc2)Cc2n[nH]c(=O)n21	24.67	-18.34
CN1CCC(N(CCc2ccccc2)C(=O)c2ccc(CO)cc2)CC1	-10.21	-16.51
Cc1cnn(CC2CCCN2Cc2nnc(Cc3ccccc3)o2)c1 (stereo not given)	-47.84	-30.31
COc1ncc(CN2CCC3(CCCN(CC4CCCCC4)C3)C2)cn1 (stereo not given)	3.182	7.471
CN1CCC(C)(CN(C)C(=O)c2ccc(CCC(C)(C)O)cc2)C1 (stereo not given)	-39.27	-29.02
Fc1cc(CN2CCOC3(CCOCC3)C2)ccc1OC(F)F	-6.186	7.456
Cc1cc(CC2COc3ccccc3C2)cnc1N (stereo not given)	23.63	21.4 & 18.59
COc1ncccc1CNC(=O)c1c[nH]c(=O)c(Br)c1	3.862	-2.9
Cc1nn(C)c(Cl)c1C1CCCN1CC(=O)NC1CCCC1 (stereo not given)	6.169	3.26
CCN(Cc1nc2c(cnn2C)c(=O)[nH]1)Cc1ccccc1Cl	-9.496	22.89
CN(C)c1ncc2c(n1)C1(CCN(CC3CC3)C1)COC2.O=C(O)C(F)(F)F (stereo not given)	-17.74	-19.6
[H][C@@]12CS(=O)(=O)C[C@]1([H])N(C(=O)c1ccc3oc(C)cc3c1)CCN2CCO	-6.066 & -4.872	-11.35
Cc1cc(=O)n(C)cc1NC(=O)NCc1cccc(F)c1	-23.87	14.66
CCOCc1nn(CC2CC2)c2c1CN(Cc1cccs1)CC2.O=C(O)C(F)(F)F.O=C(O)C(F)(F)F	6.521	-8.343
Cc1ccc(N2CCC3(CC2)CCN(C2CCOC2)CC3)nn1.O=C(O)C(F)(F)F (stereo not given)	-14.75 & -2.423	-6.932
CCOc1cc(C)nc(N2CCN(C(=O)CC)CC2)n1	24.25	6.483
O=C(Cc1ccsc1)N1CCc2ncc(Cn3cccn3)n2CC1	-8.613	1.861 & -8.154
Cn1cc(C2(C)CN(Cc3ccc(O)c(Cl)c3)CCO2)cn1 (stereo not given)	13.95 & 3.223	2.119
[H][C@@]12CCN(Cc3ccco3)CC[C@]1([H])[C@H](COC)CN(C)C2=O	6.779 & 76.39	19.63
CN1CCC2(CCC1=O)CCN(C(=O)Cc1ccc(O)c(F)c1)CC2	6.926	-4.053 & -25.32
CC(C)c1ccc(CNC(c2ccc(F)cn2)C(C)C)cc1 (stereo not given)	19.92	12.91
CNC(=O)C1(c2cnccn2)CCCN1C(=O)c1c(F)cccc1F (stereo not given)	-35.18	-8.674
CC(=O)N1N=C(c2ccccc2)OC1C(=O)NCCOc1ccccc1 (stereo not given)	-0.8315	-9.31
COc1cccc2c1CCN(C(=O)NCCc1nccn1C)C2	4.485	8.054
CCN(C)S(=O)(=O)N1CCCC(CO)(CC=C(C)C)C1 (stereo not given)	39.04	22.09
COc1cc2c(cc1CNCc1cccnc1-n1cccn1)OC(C)C2.Cl (stereo not given)	-2.451 & -5.629	0.08357
CC(C1CC1)N(C)Cc1nnc(-c2ccco2)o1 (stereo not given)	23.71 & 40.96	20.74
CC(c1cc(O)nc(NC2CCCC2)n1)n1ncc2ccccc2c1=O (stereo not given)	-1.22	-15.4 & 1.459
Cc1nnc2n1CCN(Cc1nc3ccccc3o1)C2	27.08	-2.31
Cc1ccc(CNC(=O)Cn2ncc3c2c(C)nn3C)cc1	-15.56	-14.63
N#CCCN(CC1CCCO1)C(=O)c1ccsc1 (stereo not given)	8.471	-1.865
Cc1nc(S(=O)(=O)CCn2cccn2)n(C2CCCC2)c1C	3.322 & 0.6451	4.177
Cc1cccc(-c2nc(C)nn2CN2CCC3(CC2)OCCO3)c1	-21.58	-12.07
CN(C)S(=O)(=O)N1CCC(Oc2ccccn2)CC1	13.64	-1.896
O=S(=O)(CCN1CCc2c(ncn2C2CC2)C1)c1ccccc1	-1.154	-2.431
[H][C@]12CC[C@]([H])(CN(Cc3ccncc3)C1)N(C(=O)C1(C#N)CCOCC1)C2	2.91 & -4.11	-5.838
CCOc1cc(C(=O)N2CCOCC2)cc2occc12	-12.14	0.7272
CS(=O)(=O)Cc1cccc(CNS(=O)(=O)c2ccc(F)c(F)c2)c1	-5.089 & -15.75	-14.42
O=C(O)C(F)(F)F.[H][C@@]12CN(Cc3cccs3)C[C@H](C(=O)NCCOC)[C@]1([H])CCO2	-34.25	3.943
CNc1ncc(CN(C)C(=O)c2c[nH]nc2-c2cccc(F)c2)cn1	6.16	9.035
O=c1[nH]c2c(-c3ccccn3)nsc2c(=O)n1CC1CC1	9.629	3.458
Cc1noc(C)c1Cn1cc(I)cc(C)c1=O	7.807 & 14.47	5.683
COc1ccc2c(c1)c(C(=O)Nc1nnn[nH]1)cn2C(C)C	-6.624 & -6.068	-14.57

For reference, 7 entries once more:

structure,Mtb glucose medium,Mtb cholesterol medium
O=C(O)C(F)(F)F.[H][C@@]12CN(Cc3cccs3)C[C@H](C(=O)NCCOC)[C@]1([H])CCO2,-34.25,3.943
CC(c1cc(O)nc(NC2CCCC2)n1)n1ncc2ccccc2c1=O (stereo not given),-1.22,-15.4 & 1.459
CN1CCC(N(CCc2ccccc2)C(=O)c2ccc(CO)cc2)CC1,-10.21,-16.51
CN1C(=O)CC2(CCN(Cc3cnn(C)c3)CC2)c2ccccc21,-25.06 & -11.23,-25.59
Cc1nn(C)c(Cl)c1C1CCCN1CC(=O)NC1CCCC1 (stereo not given),6.169,3.26
COc1ccc2c(c1)c(C(=O)Nc1nnn[nH]1)cn2C(C)C,-6.624 & -6.068,-14.57
O=C(Cc1ccsc1)N1CCc2ncc(Cn3cccn3)n2CC1,-8.613,1.861 & -8.154